Literature values, collected in patent US11975072B2, “Pyropheophorbide conjugate and use thereof in the treatment of cancer and as a fluorescent marker” (INSERM (INSTITUT NATIONAL DE LA SANTÉ ET DE LA RECHERCHE …, priority 2017, dated 2024).
At least one structure is not confirmed: it was looked up by name or label, or the drawing left a doubt.

Conditions: in toluene; cited from earlier work

C1=Cc2nc1c(-c1ccccc1)c1nc(c(-c3ccccc3)c3ccc([nH]3)c(-c3ccccc3)c3ccc([nH]3)c2-c2ccccc2)C=C1 [tetraphenylporphyrin]
φfo fluorescence quantum yield of the reference: 0.11
